Laboratory results taken from the supplement of paper PMC10338343.
± gives the standard deviation. The list shows a part of the results, in another mix than the full data. Many of these values have a large error.

Test system: MILI (PIWIL2) piRISC loaded with piRNA #1 (26 nt)
Assay: pre-steady-state target cleavage rate (min^-1); MIWI and MILI are mouse PIWI proteins and EfPiwi is from a freshwater sponge; tags in brackets are library labels; higher = faster piRNA-guided slicing of the target
Details: guide: piRNA #1 5'p-UGAGGUAGUAGGUUGUAUAGUAUCCA; auxiliary factor: 500 nM mouse GTSF1
Procedure, shortened: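 With or without 500 nM GTSF1 partner protein, 1 nM active affinity-purified piRISC carrying one synthetic guide was mixed with 0.1 nM transcribed, DNA-blocked target RNA library in HEPES–potassium acetate buffer at 33 °C for 0–8 or 0–960 min. Uncleaved targets were sequenced and normalised to depth and to weakly complementary targets, three trials were pooled, and k3 was capped at 0.0001 min^-1. The pre-steady-state cleavage rate came from a burst-and-steady-state fit.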

Row | Sequence | pre-steady-state target cleavage rate
1 | GGAGACCUAUGAUAUCAACCUACUAGCUGA | 0.00076 ± 0.0057
2 | GGAGAGGAUACUAUACAACCUUGUACCUCA | 0.000938 ± 0.004
3 | GGAGACGAUACUAUACAAACUACUACCUCA | 0.245 ± 0.015
4 | GGAGACGAUACGAUACAACCUACUACCUCA | 0.193 ± 0.018
5 | GGAGACCUAUGAUAUGUACCUACUGCCUCA | 0.000148 ± 0.02
6 | GGAGACCUAUGAUUACAACCUUGAACCUCA | 0.000172 ± 0.019
7 | GGAGACCUAUGAAUAGAACCUACUACCACA | 0.00136 ± 0.0033
8 | GGAGACCUAUGAUAUGAACCUUACUACCUCA | 0.000167 ± 0.02
9 | GGAGAGCGAUACUAUACAACCUACUACCUCA | 0.249 ± 0.02
10 | GGAGUGGAUACUAUACAACCUACCUACCUCA | 0.128 ± 0.0098
11 | GGAGACCUAUGAUAUGUUCCUACCUACCUCA | 0.000117 ± 0.024
12 | GGAGAGGAUACUAUACAACGCUACUACCUCA | 0.00299 ± 0.0026
13 | GGAGACCUAUGAUAUGUUGCUUGAACCUCA | < 0.0001
14 | GGAGAGGAUACUAUACAACCUACUACACUCA | 0.136 ± 0.019
15 | GGAGACCUAACUAUACAACCAUGUACCUCA | 0.000727 ± 0.015
16 | GGAGACGAUUCUAUACAACCUUCUACCUCA | 0.0216 ± 0.0072
17 | GGAGACCUUACUAUACAACACUACUACCUCA | 0.000869 ± 0.0038
18 | GGAGACCUAUGAUAUGUUGCAUGUACCUCA | 0.000226 ± 0.03
19 | GGAGACCUAACUAUACAACCUACCACCUCA | 0.0488 ± 0.014
20 | GGAGACCUAUGAAUACAACCUACUUGGAGA [g7:g18:cont:t1A] | 0.000173 ± 0.017

For convenience, part of the list above.
Row | Sequence | pre-steady-state target cleavage rate
2 | GGAGAGGAUACUAUACAACCUUGUACCUCA | 0.000938 ± 0.004
3 | GGAGACGAUACUAUACAAACUACUACCUCA | 0.245 ± 0.015
4 | GGAGACGAUACGAUACAACCUACUACCUCA | 0.193 ± 0.018
5 | GGAGACCUAUGAUAUGUACCUACUGCCUCA | 0.000148 ± 0.02
6 | GGAGACCUAUGAUUACAACCUUGAACCUCA | 0.000172 ± 0.019
7 | GGAGACCUAUGAAUAGAACCUACUACCACA | 0.00136 ± 0.0033
8 | GGAGACCUAUGAUAUGAACCUUACUACCUCA | 0.000167 ± 0.02
9 | GGAGAGCGAUACUAUACAACCUACUACCUCA | 0.249 ± 0.02
10 | GGAGUGGAUACUAUACAACCUACCUACCUCA | 0.128 ± 0.0098
11 | GGAGACCUAUGAUAUGUUCCUACCUACCUCA | 0.000117 ± 0.024
12 | GGAGAGGAUACUAUACAACGCUACUACCUCA | 0.00299 ± 0.0026
13 | GGAGACCUAUGAUAUGUUGCUUGAACCUCA | < 0.0001

The listing continues:

Row | Sequence | pre-steady-state target cleavage rate
21 | GGAGACCUAUGAUAUGUACCUACUCACCUCA | 0.000436 ± 0.015
22 | GGAGACCAUACUAUACAACCUUACUACCUCA | 0.00244 ± 0.0035
23 | GGAGACGAUACUAUACAACCUACAAGCUCA | 0.0171 ± 0.0086
24 | GGAGACCAUACUAUACAACCUAACUACCUCA | 0.0248 ± 0.0049
25 | GGAGACCUAACUAAACAACCUUCUACCUCA | 0.00364 ± 0.0053
26 | GGAGAGGAUACUAUACAAUCUACUACCUCA | 0.129 ± 0.0097
27 | GGAGACCUAUGAUAUCAACCUACUUCCUGA | 0.000179 ± 0.018
28 | GGAGACCUAUGAAUUCAAGCUACUACCUCA | 0.00298 ± 0.0032
29 | GGAGUGGAUACUAUACAACCUACUGACCUCA | 0.0789 ± 0.011
30 | GGAGACCUAUGAUAUGAACCAUGUACCUCA | 0.000118 ± 0.022
31 | GGAGACCAUACUAUACAACGCUACUACCUCA | 0.00143 ± 0.0067
32 | GGAGACCUAUGAUAUGUUGCACUACCUCA | 0.000126 ± 0.02
33 | GGAGACGAAACUAUACAACCUUCUACCUCA | 0.00739 ± 0.0047
34 | GGAGACCUAUCUAUACAACGAUGAUGGAGA [g12:g20:cont:t1A] | 0.000283 ± 0.02
35 | GGAGACCUUACUAUACAACCUAGUACCUGA | 0.00129 ± 0.0051
36 | GGAGACCUUACUAUACAUCCUACUACCACA | 0.246 ± 0.02
37 | GGAGUGGAUACUAUACAACCUUCUACCUGA | 0.00123 ± 0.0032
38 | GGAGACCAUACUAUACAACCUACGACCUCA | 0.137 ± 0.018
39 | GGAGACCUAUGAUAUGUUGCAAGUACCUCA | 0.000166 ± 0.033
40 | GGAGACCUAUGAUUACAACCUACAUGGAGA [g8:g17:cont:t1A] | 0.000271 ± 0.019
